Measured values: US20250361288A1 (Gilead, published 2025)
No constants are given. Whether binding was seen depends on the method and setting. Some entries that bind do so weakly or less than the wild type.

By UniProt entry, the sequences of proteins in these tests, tags left out. Residues count along the entry.
UniProt P50284, residues 31-223: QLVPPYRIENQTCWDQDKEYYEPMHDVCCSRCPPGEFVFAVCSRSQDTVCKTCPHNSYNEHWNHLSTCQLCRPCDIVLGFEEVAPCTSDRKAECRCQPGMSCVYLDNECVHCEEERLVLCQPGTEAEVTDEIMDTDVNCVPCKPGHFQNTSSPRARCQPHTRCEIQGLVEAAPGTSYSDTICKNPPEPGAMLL
UniProt P36941, residues 31-227: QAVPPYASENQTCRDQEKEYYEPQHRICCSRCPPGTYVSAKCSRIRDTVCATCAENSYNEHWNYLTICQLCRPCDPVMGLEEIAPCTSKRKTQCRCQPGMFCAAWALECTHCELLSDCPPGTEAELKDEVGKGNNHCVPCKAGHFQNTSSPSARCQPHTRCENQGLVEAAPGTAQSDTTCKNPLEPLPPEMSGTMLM
UniProt Q80WM9, residues 39-206: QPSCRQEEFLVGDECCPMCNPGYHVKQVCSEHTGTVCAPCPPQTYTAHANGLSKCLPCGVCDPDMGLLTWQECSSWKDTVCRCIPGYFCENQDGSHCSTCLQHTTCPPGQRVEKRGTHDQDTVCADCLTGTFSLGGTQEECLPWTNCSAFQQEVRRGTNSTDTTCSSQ

What was measured:
[1] = biological target: mouse LTβR extracellular domain fused with an Fc fragment at the C-terminus (mouse) (UniProt P50284); assay: phage ELISA
[2] = biological target: human LTβR extracellular domain fused with an Fc fragment at the C-terminus (human) (UniProt P36941); assay: phage ELISA
[3] = biological target: mouse HVEM extracellular domain fused with an Fc fragment at the C-terminus (mouse) (UniProt Q80WM9); assay: phage ELISA
[4] = biological target: human LTβR extracellular domain fused with an Fc fragment at the C-terminus (human) (UniProt P36941); assay: ELISA on coated target-Fc
[5] = biological target: mouse LTβR extracellular domain fused with an Fc fragment at the C-terminus (mouse) (UniProt P50284); assay: ELISA (FIG. 7)

Measured: binding

LIGHT-12 (from UniProt O43557 74-240) (ligand)
binds: [1] | [2] | [3]

LIGHT-84 (from UniProt O43557 74-240) (ligand)
binds: [1] | [2]

B1: LIGHT-14 (ligand)
chain: DGPAGSWEQLIQERRSHEVNPAAHLTGANSSLTGSGGPLLWESQLGLAFLRGLSYHDGALVVTKAGYYYIYSKVQLGGVGCPLGQASTITHGMYKRTPRYPEELELLVSQQSPCGRATSSSRVWWDSSFLGGVVHLEAGEKVVVRVLDERLVRLRDGTRSYFGAFMV
notes: Soluble protein carries an N-terminal His tag
not listed: [5]
binds: all other assays above

B2: LIGHT-19 (ligand)
chain: DGPAGSWEQLIQERRSHEVNPAAHLTGANSSLTGSGGPLLWETQLGLAFLRGLSYHDGALVVSKAGYYYIYSKVQLGGVGCPPGLAGTITHGLYKRTPRYPEELELLVSQQSPCGRATSSSRVWWDSSFLGGVVHLEAGEKVVVRVMDERLVRLRDGTRSYFGAFMV
notes: as for B1
not listed: [5]
binds: all other assays above

B3: LIGHT-18 (ligand)
chain: DGPAGSWEQLIQERRSHEVNPAAHLTGANSSLTGSGGPLLWETQLGLAFLRGLSYHDGALVITKAGYYYIYSKVQLGGVGCPLGQASTITHGLYKRTPRYPEELELLVSQQSPCGRATSSSRVWWDSSFLGGVVHLEAGEEVVVRVLDKRLVRLRDGTRSYFGAFMV
notes: as for B1
binds: [1] | [2] | [3]

B4: LIGHT-89 (ligand)
chain: DGPAGSWEQLIQERRSHEVNPTAHLTGANSSLTGSGGPLLWETQLGLAFLRGLSYHDGALVVTKAGYYYIYSKVQLRGVGCPLGLARTITHGLYKRTPRYLEELELLVSQQSPCGRATSSSRVWQDSSFLGGVVHLEAGEKVVVRVLDERLVRLLDGTRSYFGAFMV
notes: as for B1
binds: [5] | [1] | [2]
